The record followed here is article PMC7790415, “Loss of endocytosis-associated RabGEF1 causes aberrant morphogenesis and altered autophagy in photoreceptors leading to retinal degeneration” (PLoS Genetics, 2020).

By UniProt entry, the sequences of proteins in these tests, tags left out.
UniProt Q9JM13: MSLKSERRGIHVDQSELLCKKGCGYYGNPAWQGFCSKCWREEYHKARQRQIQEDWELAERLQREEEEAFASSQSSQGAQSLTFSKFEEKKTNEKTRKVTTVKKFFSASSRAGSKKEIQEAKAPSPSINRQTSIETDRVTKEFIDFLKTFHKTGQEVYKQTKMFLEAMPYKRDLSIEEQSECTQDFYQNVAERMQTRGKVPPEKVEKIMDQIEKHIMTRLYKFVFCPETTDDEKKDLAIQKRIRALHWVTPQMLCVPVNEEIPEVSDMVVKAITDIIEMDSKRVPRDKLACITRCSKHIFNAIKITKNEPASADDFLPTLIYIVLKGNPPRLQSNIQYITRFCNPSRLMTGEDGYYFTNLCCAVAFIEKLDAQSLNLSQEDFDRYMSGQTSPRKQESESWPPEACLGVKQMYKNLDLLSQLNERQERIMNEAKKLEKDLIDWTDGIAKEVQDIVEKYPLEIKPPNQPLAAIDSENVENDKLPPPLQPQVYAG

In this assay the target is RabGEF1 (mouse (endogenous in retina)) (UniProt Q9JM13). Kind of assay: affinity purification with mass spectrometry; anti-RabGEF1 and IgG immunoprecipitates from control and Rabgef1-/- mouse retinal lysates; trypsin digest, LC-MS on Orbitrap Lumos (n = 2).

Results are given in words; binding and its absence hold for the method and conditions named. Binding seen in cells or lysates may run through a third protein. These calls come from enrichment with a bait or labelling near it, and not all partners need be listed.

B1: Rabep2 (protein, UniProt Q91WG2 1-554)
chain: MAAAPATLALDPQPQEKQKDASESSELSRLRAELAGALAEMETMKAVAEVSESTKAEAVAAVQRQCQEEVASLQAILKDSISSYETQIAALKQERQQQQQDFEEKDRELGHLKQLLARAHPLDSLEKQMEKAHEDSEKLREIVLPMEQEITELKGKLQRAEELIQEIQRRPRQPASLHGSTELLPLSRNPSPPLEPLEEPSGDAGPAAEAFAHNCDDSASISSFSLGGAAGSASLRGPQGLSPEQEETASLVSTGTLVPEGIFLPPPGYQLVPDSQWEQLQVEGRQLQKELESVSRERDELQEGLRRSNEDCAKQMQVLLAQVQNSEQLLRTLQGTVSQAQERVQLQMAELATSHKCLSQEVKRLNEENQGLRAEQLPSSALQGSEQREDQDEALPSSIQELHLLVQNTRQQARARQQAQEHEAERLRIEIVKLREALDEETAAKASLERQLRVQREETDVLEASLCSLRIETERVQQEQRKAQLTDLLSEQRAKTLRLQAELETSEQVQRDFVRLSQALQVRLERIRQAETLQQVRSILDEAPLRDIRDIKDS
Consider B1, for which the binding result is reported as “binds”.
